From paper doi:10.1101/2025.04.09.648038

Columns and labels:
[1] = molecular target: T1, Atg8 (yeast two-hybrid bait in pGBKT7) (S. pombe) (UniProt O94272); test: two-hybrid
T1 sequence: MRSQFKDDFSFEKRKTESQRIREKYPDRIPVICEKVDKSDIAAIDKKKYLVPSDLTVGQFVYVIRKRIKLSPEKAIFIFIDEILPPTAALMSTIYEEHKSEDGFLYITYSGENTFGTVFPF

[2] = molecular target: T2, Atg8 (construct of the co-immunoprecipitation) (S. pombe) (UniProt O94272); test: co-IP
T2 sequence: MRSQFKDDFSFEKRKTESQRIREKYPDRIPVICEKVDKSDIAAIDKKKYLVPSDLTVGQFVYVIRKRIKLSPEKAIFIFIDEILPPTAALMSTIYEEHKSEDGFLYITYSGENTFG

Substance: Npr1 (yeast two-hybrid prey in pGADT7) (S. pombe)
- binding [1]: binds

Substance: Npr1(W22A/V25A) (yeast two-hybrid prey in pGADT7) (S. pombe)
- binding [1]: no binding

Substance: Npr1-W22A/V25A (construct of the co-immunoprecipitation) (S. pombe)
- binding [2]: no binding

Results are given in words; binding and its absence hold for the method and conditions named. For part of these data: A result given as binding can be weak or reduced; the word gives no strength. For part of these data: In cells and extracts the contact can be indirect.
